In PMC9499508:
No constants are given. Whether binding was seen depends on the method and setting. Binding seen in cells or lysates may run through a third protein. Some results given as binding are weak or reduced against the parent protein; the word gives no strength. Tags and fused reporters may be left off the sequences shown.

Chains of the proteins cited; added tags and fusions are not shown.
UniProt Q9H4A6: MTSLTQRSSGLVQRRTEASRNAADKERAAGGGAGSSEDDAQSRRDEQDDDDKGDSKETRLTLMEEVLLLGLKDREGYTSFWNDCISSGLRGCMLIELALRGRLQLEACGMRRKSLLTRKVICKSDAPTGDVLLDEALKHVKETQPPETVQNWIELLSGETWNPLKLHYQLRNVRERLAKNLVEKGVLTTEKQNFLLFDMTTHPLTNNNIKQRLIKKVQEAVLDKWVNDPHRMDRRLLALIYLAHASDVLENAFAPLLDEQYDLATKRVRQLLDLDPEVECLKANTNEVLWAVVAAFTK

Assays:
[1] = target: T1, ST3Gal-II-HA (UniProt Q16842); test: co-IP; lysates of transiently transfected T98G cells (for ST3Gal-II/β3GalT-IV: control or GOLPH3 knockdown cells); lysis buffer 50 mM Tris-HCl pH 7.2, 1.0% Triton X-100, 300 mM NaCl; IP with anti-HA mAb and protein G-Sepharose, 4 °C; Western blot with anti-RFP, anti-GFP or anti-HA
T1 sequence: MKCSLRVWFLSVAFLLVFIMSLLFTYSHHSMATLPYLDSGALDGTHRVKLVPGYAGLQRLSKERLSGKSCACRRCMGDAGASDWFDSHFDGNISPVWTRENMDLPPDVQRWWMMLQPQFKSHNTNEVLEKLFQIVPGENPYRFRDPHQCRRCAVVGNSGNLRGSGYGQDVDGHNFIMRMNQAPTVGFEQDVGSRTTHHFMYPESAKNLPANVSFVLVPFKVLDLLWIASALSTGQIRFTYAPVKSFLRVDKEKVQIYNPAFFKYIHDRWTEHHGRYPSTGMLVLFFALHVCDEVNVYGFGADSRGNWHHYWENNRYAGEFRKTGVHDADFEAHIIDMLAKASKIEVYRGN

[2] = target: T2, β3GalT-IV^(1−52)-HA-YFP (UniProt Q9Z0F0); test: as above
T2 sequence: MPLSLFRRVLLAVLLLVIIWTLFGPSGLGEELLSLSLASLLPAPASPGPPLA

binding [1]: binds
binding [2]: binds
Substance: GOLPH3-GFP (from UniProt Q9H4A6 1-298)
